No constants are given. Whether binding was seen depends on the method and setting. Some results given as binding are weak or reduced against the parent protein; the word gives no strength.
Target: recombinant human ROR1 (human) (UniProt Q01973)
Assay: phage display panning and ELISA on coated recombinant human ROR1

Protein sequences, listed by entry. Tags and fused reporters are not part of them. Residues count along the entry.
UniProt Q01973, residues 30-403: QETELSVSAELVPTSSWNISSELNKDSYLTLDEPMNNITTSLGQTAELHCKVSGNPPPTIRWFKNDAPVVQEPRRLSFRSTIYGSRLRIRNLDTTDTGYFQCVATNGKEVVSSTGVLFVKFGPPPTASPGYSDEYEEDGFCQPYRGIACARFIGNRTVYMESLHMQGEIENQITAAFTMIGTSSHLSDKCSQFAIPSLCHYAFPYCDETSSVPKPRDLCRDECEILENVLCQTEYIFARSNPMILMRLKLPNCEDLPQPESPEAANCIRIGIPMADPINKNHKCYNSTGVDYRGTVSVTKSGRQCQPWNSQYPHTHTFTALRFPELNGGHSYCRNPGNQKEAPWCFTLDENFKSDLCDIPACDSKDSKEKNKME

binding	Binder
binds	human anti-ROR1 ScFv binder ScFv4 (scFv, not shown: small tags and cut ends) scFv: QVQLQESGPGLVKPSETLSLTCTVSGGSISSSSYYWGWIRQPPGKGLEWIGSIYYSGSTYYNPSLKSRVTIPVDTSKNQFSLKLSSVTAADTAVYYCARHLGGDAFDIWGQGTTVTVSSGGGGSGGGGSGGGGSLPVLTQPPSVSVAPGQTARITCGGNNIGSKSVHWYQQKPGQAPVLVVYDDSDRPSGIPERFSGSNSGNTATLTISGTQAMDEADYFCQSYDSSNPVVFGGGTQLTVL
binds	human anti-ROR1 ScFv binder ScFv9 (scFv, not shown: small tags and cut ends) scFv: QAAQVQLQQSGAEVKKPGSSVKVSCKASGGTFSSYAISWVRQAPGQGLEWMGWINPNSGGTNYAQRFQGRVTMTRDTSISTAYMELSRLRSDDTAVYYCASYNDAFDIWGQGTLVTVSSGGGGSGGGGSGGGGSNFMLTQPHSVSESPGKTVTISCTRSSGSIASNYVQWYQQRPGSAPTIVIYEDDQRPSGVPDRFSGSIDTSSNSASLTISGLQSEDEADYYCQSYEPGNGVFGGGTKVTVL

Reference: patent US20220389094A1
